Experimental data from article PMC8209669.
No constants are given. Whether binding was seen depends on the method and setting. Binding seen in cells or lysates may run through a third protein. Some results given as binding are weak or reduced against the parent protein; the word gives no strength.

Target: T1, endogenous allophycocyanin (APC) core of the Synechocystis phycobilisome (Synechocystis sp. PCC 6803 (endogenous)) (UniProt Q01951+Q01952)
T1 sequence 1: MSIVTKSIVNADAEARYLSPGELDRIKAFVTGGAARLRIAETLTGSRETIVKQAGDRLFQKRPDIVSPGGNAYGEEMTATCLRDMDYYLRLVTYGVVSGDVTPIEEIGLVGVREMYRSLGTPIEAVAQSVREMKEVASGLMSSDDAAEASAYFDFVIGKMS
T1 sequence 2: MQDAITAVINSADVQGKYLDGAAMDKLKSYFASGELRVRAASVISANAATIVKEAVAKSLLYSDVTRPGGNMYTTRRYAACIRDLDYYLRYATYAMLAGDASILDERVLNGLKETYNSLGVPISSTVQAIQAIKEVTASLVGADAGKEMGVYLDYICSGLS
Experiment: co-sedimentation; sucrose step gradient (0.25-2.0 M sucrose in 0.8 M phosphate buffer, pH 7.0) of phycobilisome extracts of strains SynBAC2C1, SynBA, TeBA and SynO; 220,000 g, 18 h, 20 °C; bands precipitated with ammonium sulfate and analysed by SDS-PAGE with silver staining

- binding: binds
Substance: core-membrane linker ApcE (Synechocystis) (from UniProt Q55544 1-896)
